Among the data in patent US20200040071A1 (HUB BIOTECH, published 2020) are binding values, retold here.

No constants are given. Whether binding was seen depends on the method and setting. Some entries that bind do so weakly or less than the wild type.

In experiment [1] the target is T1, endothelial monocyte activating polypeptide II (EMAP II) (UniProt Q12904).
T1 sequence (looked up): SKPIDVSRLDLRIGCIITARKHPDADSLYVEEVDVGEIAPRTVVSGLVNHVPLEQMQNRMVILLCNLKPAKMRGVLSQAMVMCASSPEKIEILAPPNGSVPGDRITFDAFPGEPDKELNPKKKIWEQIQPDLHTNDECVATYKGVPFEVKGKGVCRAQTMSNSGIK
Nature of the experiment: ELISA, EMAP II coated at 1 ug/ml, anti-IgG-HRP detection, absorbance at 450 nm. On the technique in general: ELISA stands for enzyme-linked immunosorbent assay.

Experiment [2] addresses T1, endothelial monocyte activating polypeptide II (EMAP II). Nature of the experiment: SPR (Reichert SR7500DC), EMAP II protein fixed to a PEG chip (ligand printed on the sheet as hAIMP1), antibody as analyte at 0-40 nM.
The target is the same in experiment [3]. Nature of the experiment: ELISA, plate coated with EMAP II antigen (1 µg/ml), detection with anti-IgG-HRP, OD 450 nm.

B1: BAP015-hum03 antibody (antibody, V domains shown)
VH: EVQLVQSGAEVKKPGATVKISCKVSGYTFTSYTMHWVRQAPGQGLEWMGYINPSSGFTNYNQKFKDRVTISADKSISTAYLQWSSLKASDTAMYYCASRFAYWGQG
VL: AIQLTQSPSSLSASVGDRVTITCKASQDVSTAVAWYQQKPGKAPKLLIYSASYRYTGVPSRFSGSGSGTDFTFTISRLEPEDFAVYYCQQHYSIPYTFGQG
notes: The printed variable regions end at FGQG (light) and WGQG (heavy), so they seem to stop short of the end of framework 4; also called anti-EMAP II parent antibody; control group
As to B1, the binding result in experiment [1], in experiment [2] and in experiment [3] was “binds” in each case.

B2: BAP072-EMAP II-4 antibody (antibody, V domains shown)
VH: EVQLVQSGAEVKKPGATVKISCKVSGYTFTSYTMHWVRQAPGQGLEWMGYTNPSSGFTNYTQKFKDRVHISADKSISTAYLQWSSLKASDTAWYYCASRFAYWGQG
VL: AIQLTQSPSSLSASVGDRVTITCKASQDVSTAVAWYQQKPGKAPKLLIYSASYGYTGVPSRFSGSGSGTDFTFTISRLEPEDFAVYYCQQHYSIPYTFGQG
On to B2, for which the binding result in experiment [3] was “binds”.

B3: BAP072-EMAP II-3 antibody (antibody, V domains shown)
VH: EVQLVQSGAEVKKPGATVKISCKVSGYTFTSYTMHWVRQAPGQGLEWMGYINPRSGFTNYRQKFKHRVTISADKSISTAYLQWSSLKASDTAMYYCFSRFAYWGQG
VL: AIQLTQSPSSLSASVGDRVTITCKASQDVSTAVAWYQQKPGKAPKLLIYSASYGYTGVPSRFSGSGSGTDFTFTISRLEPEDFAVYYCQQHYSIPYTFGQG
notes: also called BAP072-EMAP 11-3
For the molecule B3, the binding entry in experiment [3] was “binds”.

B4: BAP072-EMAP II-1 antibody (antibody, V domains shown)
VH: EVQLVQSGAEVKKPGATVKISCKVSGYTFTSYTMHWVRQAPGQGLEWMGYINPRSGFTNYRQKFKHRVTISADKSISTAYLQWSSLKASDTAMYYCFSRFAYWGQG
VL: AIQLTQSPSSLSASVGDRVTITCKASQDVSTAVAWYQQKPGKAPKLLIYSASYRYWGVPSRFSGSGSGTDFTFTISRLEPEDFAVYYCQQHYSIPYTFGQG
In the case of B4, the binding entry in experiment [2] and in experiment [3] was “binds” throughout.
